# Results of single-concentration screens

A: 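Whole-cell growth test on Mycobacterium tuberculosis, read after 4 days in a medium based on cholesterol and the lipid DPPC; the read-out is not stated. Concentration: 50 µM. Direction is inferred from retests: higher values go with more growth inhibition. Size under these conditions: about 69,000 compounds, about 370 of them at 50% or above in at least one test.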
B: 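Whole-cell growth test on Mycobacterium tuberculosis, read after 3 days in glucose-containing 7H9 medium; the read-out is not stated. Compounds at 50 µM. Direction is inferred from retests: higher values go with more growth inhibition. Of about 69,000 compounds tested this way, about 760 (1.1%) reached 50% or more in at least one test.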

The filed quantity is “Percent Effect” (%).
The record does not define 0% and 100%; most values in the screen are far below 50% and negative numbers occur (in some assays of this library far below -100).
Compounds were drawn at random from those tested, without regard to their results.
Two or more numbers in one place are separate tests of the same structure; such repeats can differ widely.

Cc1nc(C2CCCN2C(=O)Cc2ccc(F)cc2)ncc1C(N)=O (centres unmarked) gave A: -13.89%; B: 4.4%.
Cc1cnccc1-n1nc(C(C)C)nc1CS(C)(=O)=O gave A: -13.85%; B: 14.74%.
O=C(O)C(F)(F)F.O=C(c1ccco1)N1CCOCC2(CCN(C3CCOCC3)C2)C1 (centres unmarked) gave A: 7.157%; B: -3.513%.
CCOc1nn(CC)cc1-c1nnc(SCC)n1C gave A: 0.7038%; B: -3.258% & -13.16%.
Cc1c[nH]nc1C1CCN(C(=O)C2CCCC2)C1 (centres unmarked) gave A: 9.013%; B: 17.57%.
O=C1CC(C(=O)Nc2nnc(-c3ccccn3)[nH]2)c2ccccc2N1 (centres unmarked) gave A: -7.857%; B: -40.32%.
Cc1nn(C)c(C)c1NC(=O)CNc1cccc(CC(F)(F)F)c1 gave A: -4.508%; B: 2.976%.
CCN1C(=O)CC(c2cnn(C)c2)C12CCN(C(=O)C1CC=CC1)CC2 (centres unmarked) gave A: -0.004274%; B: -23.14% & -9.252%.
O=C(C1CC1)N1C[C@@H](F)[C@@H](OCc2nc3ccccc3[nH]2)C1 gave A: -22.89%; B: -3.449% & -17.41%.
COc1nccnc1N1CCC2(CC1)[C@H](O)C[C@@H]2OCCN(C)C gave A: -0.8873%; B: -30.54%.
CCCc1noc(CN2CCN(CCO)CC2)n1 gave A: 4.852%; B: 9.621%.
CC(=O)N1CCCC1c1nc(C)c2c(n1)N(Cc1ccccn1)CCC2 (centres unmarked) gave A: -12.8%; B: 9.318%.
CC(C)(O)CN1CCN(C(=O)c2cc3ccccc3c(=O)[nH]2)CC1 gave A: -6.89%; B: -7.589% & -9.688%.
COc1cccc(NC(=O)NCC(Cc2cnn(C)c2)C(N)=O)c1 (centres unmarked) gave A: 7.526%; B: 4.895%.
COc1cc(NC(=O)c2ccc(CN3CC[C@H](O)C3)cc2)cc(OC)c1 gave A: 12.44%; B: -1.561% & 7.355%.
Cc1cccnc1NC(=O)NCc1ccc(N2CCNC(=O)C2)cc1 gave A: -18.59%; B: -21.97%.
COCCNc1nc(N2CCOCC2)nc2nccnc12 gave A: -33.26%; B: -5.384% & -3.828%.
COc1nonc1NCn1nc(C)cc1C gave A: -49.63%; B: -57.46%.
COCCn1cncc1CN1CCCC(C)(c2ccccc2)C1 (centres unmarked) gave A: -30.45%; B: 7.957%.
CCc1cnc(CN(C)C2CCN(CCCS(=O)(=O)NC)C2)o1 (centres unmarked) gave A: -32%; B: -34.08%.
CN(C(=O)Cc1cccs1)C1CCN(c2ccccn2)CC1 gave A: 29.79%; B: -6.9%.
[H][C@@]12CS(=O)(=O)C[C@]1([H])N(Cc1nc3c(s1)CCCC3)CCN2CCOC gave A: -6.906%; B: 11.45%.
CN(C)CC1CN(Cc2coc(-c3cccs3)n2)CCO1 (centres unmarked) gave A: -31.92%; B: -15.7%.
Cc1cnc(C(C)(C)NC(=O)NCc2ccc(C#N)cc2F)s1 gave A: 9.012%; B: 9.987%.
COc1ccc(OCCNC(=O)N2CCS(=O)(=O)CC2)cc1 gave A: 8.117%; B: 6.694%.
CCc1nnc(CN2CCN(c3cccc(OC)c3)C(=O)C2)o1 gave A: -30.99%; B: -23.36%.
Cn1c(-c2cccs2)nn(CCNS(=O)(=O)c2ccccc2Cl)c1=O gave A: -2.224%; B: -6.278% & 2.677%.
CNc1ncc2c(n1)CN(CCc1ccc(F)cc1)C2=O gave A: 8.192%; B: 29.91%.
COc1cc(F)c(C(=O)NCc2cc(C)on2)c(F)c1 gave A: -32.65%; B: -7.263%.
O=C(Cn1cccnc1=O)NCC1Cc2ccccc2O1 (centres unmarked) gave A: -32.6%; B: -26.92%.
Cc1nc(CN(CCS(C)(=O)=O)C(C)C)cs1 gave A: 16.28%; B: -15.71%.
CC(C)[C@H](NS(C)(=O)=O)C(=O)NCc1cc(-c2ccco2)nn1C gave A: -21.75%; B: 5.494%.
Cc1nc(N2CCN(C(=O)CC3CCCC3)CC2)c2cnn(C)c2n1 gave A: 10.51%; B: -6.896%.
CC(=O)N1CCN([C@@H]2CCC[C@@H](NC(=O)c3cccnc3)[C@H]2O)CC1 gave A: -2.332%; B: 13.32%.
O=C(c1ccc(SC(F)F)cc1)N1CCOCC1c1ncon1 (centres unmarked) gave A: -1.389%; B: -2.041%.
CCc1cccc(CC)c1NC(=O)c1ccccc1N(C)S(C)(=O)=O gave A: 2.283% & -20.37%; B: 14.73%.
Cc1noc(C)c1CN1CCN(c2ccnc(-c3ccccc3)n2)CC1 gave A: -17.73%; B: -29.67%.
CN1CCN(C(=O)c2[nH]nnc2Nc2ccccc2F)CC1 gave A: -3.971%; B: 21.25%.
CSc1ncc(Cl)c(C(=O)NC(Cc2ccccc2)C(=O)O)n1 (centres unmarked) gave A: -28.96%; B: -40.79%.

3 of the entries, repeated:

With Cc1cnc(C(C)(C)NC(=O)NCc2ccc(C#N)cc2F)s1 the screen gave A: 9.012%; B: 9.987%.
With Cc1cccnc1NC(=O)NCc1ccc(N2CCNC(=O)C2)cc1 the screen gave A: -18.59%; B: -21.97%.
With COc1nccnc1N1CCC2(CC1)[C@H](O)C[C@@H]2OCCN(C)C the screen gave A: -0.8873%; B: -30.54%.

The values are deposited in ChEMBL (CHEMBL3988442, “University of Dundee, Small-Polar-MMV Screening Library” (2021)).